The test has as its target GST-TAF8 C-terminal half lacking the HF (mouse) (UniProt Q9EQH4). Kind of test: pull-down; GST fusion from E. coli on glutathione sepharose beads, incubated with Sf9 whole cell extract overexpressing the partner, 2 h at 4°C; washes with IP buffer with 500 mM KCl, then 100 mM KCl; western blot; only the target purified. In general terms: A western blot detects proteins with antibodies after separation by electrophoresis.

The chains behind the UniProt entries cited, without tags or fusion partners. Where a name states a change or a piece, a line headed by the entry shows the natural chain unless it says otherwise.
UniProt Q9EQH4: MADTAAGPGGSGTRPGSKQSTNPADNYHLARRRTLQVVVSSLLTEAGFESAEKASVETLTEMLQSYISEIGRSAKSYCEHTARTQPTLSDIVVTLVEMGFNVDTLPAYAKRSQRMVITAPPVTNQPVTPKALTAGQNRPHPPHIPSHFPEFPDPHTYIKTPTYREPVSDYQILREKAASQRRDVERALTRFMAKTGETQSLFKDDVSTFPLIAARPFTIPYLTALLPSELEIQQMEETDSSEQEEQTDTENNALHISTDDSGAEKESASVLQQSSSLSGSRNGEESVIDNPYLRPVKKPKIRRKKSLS
UniProt Q12962: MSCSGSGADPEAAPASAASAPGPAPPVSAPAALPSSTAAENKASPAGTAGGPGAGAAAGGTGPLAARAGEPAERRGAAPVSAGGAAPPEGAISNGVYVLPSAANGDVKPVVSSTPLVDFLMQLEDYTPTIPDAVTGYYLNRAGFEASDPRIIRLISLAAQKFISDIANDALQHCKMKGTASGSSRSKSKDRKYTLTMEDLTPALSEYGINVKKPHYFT
UniProt O94864: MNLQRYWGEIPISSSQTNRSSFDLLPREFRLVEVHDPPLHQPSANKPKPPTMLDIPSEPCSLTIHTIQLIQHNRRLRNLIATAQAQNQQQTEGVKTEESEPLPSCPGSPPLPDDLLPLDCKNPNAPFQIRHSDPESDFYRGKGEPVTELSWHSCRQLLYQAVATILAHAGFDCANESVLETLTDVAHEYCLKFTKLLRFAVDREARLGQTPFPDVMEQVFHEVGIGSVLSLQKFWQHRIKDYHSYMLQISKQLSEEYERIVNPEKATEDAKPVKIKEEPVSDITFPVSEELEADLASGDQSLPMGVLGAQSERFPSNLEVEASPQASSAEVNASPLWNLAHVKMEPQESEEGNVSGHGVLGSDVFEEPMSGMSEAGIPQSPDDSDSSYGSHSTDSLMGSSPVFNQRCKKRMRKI

Consider two substances from article PMC1820849.

Results are given in words; binding and its absence hold for the method and conditions named. Binding seen in cells or lysates may run through a third protein. A result given as binding can be weak or reduced; the word gives no strength.

As to TAF10 (from UniProt Q12962 1-218), the binding entry is listed as “no binding”. With Flag-SPT7L (from UniProt O94864 1-414), the binding entry is “binds”.
